{"source": "PubChem BioAssay AID1487", "about": "(National Center for Advancing Translational Sciences (NCATS), 2009)", "note": "Out of some 200,000 compounds screened, about 25 (0.01%) were called active. This list was built around the results that the source calls inconclusive (neither active nor inactive); the mix of calls is not that of the screen. Calls come from the whole dose curve; as a rule, active = well fitted inhibition curve with a large enough effect in the signal ratio, with a control signal flat (not every such curve was filed as active); inconclusive = small, poorly fitted or top-dose-only effect, or effect the other way, or a change in a side signal; inactive = flat fitted curve, though single readings scatter; the % refers to the signal ratio. Potencies beside an inconclusive call are fits to weak or partial responses and may not hold up. % is set by controls: 0 for no effect and ±100 for the full control effect; potency is the fitted concentration of half-maximal effect."}
{"assay": "qHTS Assay for Modulators of Lamin A Splicing", "conditions": "HeLa LMNA splicing GFP/RFP minigene ratio, 48 h; ratio change, negative = inhibition: at 46.1 µM (top of the series) unless noted", "how_it_was_run": "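S3 HeLa stable clones carrying a lamin A-EGFP splicing minigene plus DsRed2 were seeded at 600 cells/well in Opti-MEM with 2% FBS, pin-dosed and incubated 48 h at 37°C. Acumen cytometry (488 nm) gave the GFP/RFP total-intensity ratio.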"}
{"smiles": "CCCN1C(=O)/C(=C/c2ccc(N3CCCC3)c(C)c2)NC1=S", "Potency": "inconclusive: 14.1 µM [activator, partial curve]"}
{"smiles": "COc1ccc(N2CCN(C(CNS(=O)(=O)c3ccc4c(c3)OCCO4)c3ccco3)CC2)cc1", "note": "(stereo unspecified)", "Potency": "inconclusive: 12.6 µM [falling, partial curve]"}
{"smiles": "CC1=C(C(=O)N2CCCCC2)C2(CCC(C)CC2)OC1=O", "note": "(stereo unspecified)", "ratio change, negative = inhibition": "inconclusive: -13.6%"}
{"smiles": "O=C(NC1CCCCCC1)c1nnc(Cc2ccc(Cl)cc2)o1", "ratio change, negative = inhibition": "inconclusive: -5.33%"}
{"smiles": "COc1ccc(C/C(N)=N/OC(=O)c2cccs2)cc1", "ratio change, negative = inhibition": "inconclusive: -15% [at 46 µM]"}
{"smiles": "COc1cccc(NC(=O)CSc2nccn2-c2cccc(OC)c2)c1", "ratio change, negative = inhibition": "inconclusive: -26.6%"}
{"smiles": "CCc1ccc(-c2nc(CS(=O)CC(=O)NCCc3ccc(Cl)cc3)c(C)o2)cc1", "note": "(stereo unspecified)", "ratio change, negative = inhibition": "inconclusive: 10.4% [at 46 µM]"}
{"smiles": "O=C1CCSC2(C(=O)N(Cc3ccc(F)cc3)c3ccccc32)N1c1ccc(F)c(F)c1", "note": "(stereo unspecified)", "ratio change, negative = inhibition": "inconclusive: 17% [at 46 µM]"}
{"smiles": "Cc1ccc(-n2ncc(C#N)c2/N=C/N(C)C)cc1", "ratio change, negative = inhibition": "inconclusive: 9.41%"}
{"smiles": "O=C1NC(c2ccccc2)=CC(c2ccccc2)N1", "note": "(stereo unspecified)", "ratio change, negative = inhibition": "inactive"}
{"smiles": "COc1ccc(N2CCN(C(=O)Cc3ccc(-n4c(=O)[nH]c5ccccc5c4=O)cc3)CC2)cc1", "ratio change, negative = inhibition": "inactive"}
{"smiles": "Cc1c(C(=O)Nc2cccc(Cl)c2)oc2ccc(S(=O)(=O)N(C)C3CCCCC3)cc12", "ratio change, negative = inhibition": "inconclusive: -3.8% [at 46 µM]"}
{"smiles": "COC(=O)c1[nH]c2ccc(F)cc2c1NC(=O)CCN1CC(C)OC(C)C1", "note": "(stereo unspecified)", "ratio change, negative = inhibition": "inconclusive: 14.1%"}
{"smiles": "CCn1c(/C=C2\\C(=O)N(C)c3ccccc32)nc2ccccc2c1=O", "ratio change, negative = inhibition": "inconclusive: 1.04%"}
{"smiles": "Cn1ccc2c(OCC(=O)Nc3cc(C(F)(F)F)ccc3Cl)cccc2c1=O", "ratio change, negative = inhibition": "inconclusive: 19.8% [at 46 µM]"}
{"smiles": "Cc1cc(NC(=O)c2ccccc2Oc2ccccc2)no1", "ratio change, negative = inhibition": "inconclusive: 13.6%"}
{"smiles": "CCc1ccc(NC(=O)CSC2=Nc3ccccc3C3=NC(CC(=O)NCc4ccccc4)C(=O)N23)cc1", "note": "(stereo unspecified)", "ratio change, negative = inhibition": "inactive"}
{"smiles": "CCN(CC)c1nc(N)c2c(N)n(-c3ccccc3C)c(=S)c(C#N)c2c1C#N", "ratio change, negative = inhibition": "inactive"}
{"smiles": "CC(NC(=O)c1ccc(N(C)C)cc1)C(c1cccs1)N1CCN(C)CC1", "note": "(stereo unspecified)", "ratio change, negative = inhibition": "inactive"}
{"smiles": "CNc1ncncc1-c1ccccc1C(F)(F)F", "ratio change, negative = inhibition": "inactive"}
{"smiles": "CCCOc1ccc(NC(=O)CC2C(=O)N(C)C(=S)N2Cc2ccc3c(c2)OCO3)cc1", "note": "(stereo unspecified)", "Potency": "inconclusive: 35.5 µM [falling, single point]"}
{"smiles": "CCc1ccccc1NC(=O)C1=C(C)C(=O)OC12CCCCCC2", "ratio change, negative = inhibition": "inconclusive: 14.8% [at 46 µM]"}
{"smiles": "CNc1ccc(Br)cc(C(=O)/C=C/c2ccc(Cl)cc2Cl)c1=O", "Potency": "inconclusive: 15.8 µM [inhibitor, single point]"}
{"smiles": "Cc1cc(C)c(C)c(S(=O)(=O)NCCCN2CCOCC2)c1C", "ratio change, negative = inhibition": "inconclusive: 14.5% [at 46 µM]"}
{"smiles": "CC1(C)CC(=O)C2=C(C1)OC(N)=C(C#N)C2Cc1ccccc1", "note": "(stereo unspecified)", "ratio change, negative = inhibition": "inactive"}
{"smiles": "CCOc1cccc2c1OC(c1cc(OC)c(OC)c(OC)c1)N1N=C(c3ccc(C)o3)CC21", "note": "(stereo unspecified)", "Potency": "inconclusive: 12.6 µM [falling, single point]"}
{"smiles": "CCOC(=O)c1sc(NC(=O)CSc2nnc(C(C)C)n2CC)nc1C", "ratio change, negative = inhibition": "inconclusive: 11.6%"}
{"smiles": "O=C(c1ccc(Cl)cc1)C1CCCN(Cc2cccn2-c2ccccn2)C1", "note": "(stereo unspecified)", "ratio change, negative = inhibition": "inconclusive: -11.9% [at 46 µM]"}
{"smiles": "Nc1ccc2c(c1)C(=O)N(CC1CCCO1)C2=O", "note": "(stereo unspecified)", "ratio change, negative = inhibition": "inactive"}
{"smiles": "COCCNC(=O)c1c(NC(=O)c2nc(SC)ncc2Cl)sc2c1CCCC2", "ratio change, negative = inhibition": "inactive"}
{"smiles": "COc1cc(S(=O)(=O)N2CCN(Cc3ccc4c(c3)OCO4)CC2)c(C)cc1C", "Potency": "inconclusive: 35.5 µM [fluorescent, single point]"}
{"smiles": "CCOC(=O)C1=C(CSc2nncn2C)NC(=O)NC1c1cc(OCC)ccc1OCC", "note": "(stereo unspecified)", "ratio change, negative = inhibition": "inconclusive: 5.51%"}
{"smiles": "Cc1ccc(-n2nnnc2SC(C)C(=O)Nc2ccc(Cl)cn2)cc1", "note": "(stereo unspecified)", "ratio change, negative = inhibition": "inconclusive: -17.6%"}
{"smiles": "CCCN(CCC)C(=O)c1c2c(nc3ccccc13)C(=O)N(C1CCCCC1)C2", "ratio change, negative = inhibition": "inactive"}
{"smiles": "Clc1ccc(-c2nc(N3CCCCC3)nc3ccccc23)cc1", "ratio change, negative = inhibition": "inactive"}
{"smiles": "COC(=O)c1nc(-c2ccc(C)cc2)oc1N(C)C", "ratio change, negative = inhibition": "inactive"}
{"smiles": "CSc1nc2nc3c(cc2c(=O)[nH]1)C(O)Oc1ccc(C)cc1-3", "note": "(stereo unspecified)", "Potency": "inconclusive: 11.2 µM [activator, partial curve]"}
{"smiles": "COc1ccc(NC(=O)CSc2nc(NS(=O)(=O)c3ccccc3)cc(=O)[nH]2)cc1", "ratio change, negative = inhibition": "inactive"}
{"smiles": "CCOC(=O)C1=CN(C)C=C(C(=O)OCC)C1c1ccsc1", "ratio change, negative = inhibition": "inconclusive: 7.28%"}
{"smiles": "COc1ccc(CNC(=O)CN(Cc2ccccc2)C(=O)c2csnn2)cc1", "ratio change, negative = inhibition": "inactive"}
{"smiles": "O=C(CNc1ccccc1)N/N=C/c1ccc([N+](=O)[O-])o1", "Potency": "inconclusive: 35.5 µM [rising, single point]"}
{"smiles": "O=C1CC(/C=C/c2ccccc2)=Nc2ccccc2N1", "ratio change, negative = inhibition": "inconclusive: -56.7% [at 46 µM]"}
{"smiles": "CNS(=O)(=O)c1ccc(NS(=O)(=O)c2ccccc2F)cc1", "ratio change, negative = inhibition": "inconclusive: -0.148% [at 46 µM]"}
{"smiles": "CCCCNC(=O)C1=C(N)C(C(=O)Nc2ccc(C)c(S(=O)(=O)N3CCCCC3)c2)SC1=Nc1ccc(C)cc1C", "note": "(stereo unspecified)", "ratio change, negative = inhibition": "inactive"}
{"smiles": "Cc1ccc(-c2csc3nc(C)n(-n4cccc4)c(=O)c23)o1", "ratio change, negative = inhibition": "inconclusive: 32.2%"}
{"smiles": "COCCCNC(=O)c1ccc(NC(=O)c2nsc3ccccc23)cc1", "ratio change, negative = inhibition": "inconclusive: -16.7% [at 46 µM]"}
{"smiles": "O=S(=O)(Nc1c(S(=O)(=O)c2ccccc2)c2nc3ccccc3nc2n1C1CCCCC1)c1ccccc1", "ratio change, negative = inhibition": "inactive"}
{"smiles": "COc1ccc(CNS(=O)(=O)c2cnc(N)nc2)c(OC)c1", "ratio change, negative = inhibition": "inactive"}
{"smiles": "CC(=O)c1ccc(NC(=O)Cn2cc(S(=O)(=O)Cc3cccc(Cl)c3)c3ccccc32)cc1", "ratio change, negative = inhibition": "inconclusive: 33.6% [at 46 µM]"}
{"smiles": "CCOc1cc(CNC(=O)c2sc3ncnc(N(C)C4CCCCC4)c3c2C)ccc1OC", "ratio change, negative = inhibition": "inconclusive: -19.6% [at 46 µM]"}
{"smiles": "COc1ccc(-c2nc(C)c(CCNC(=O)C(=O)Nc3ccccc3OC)s2)cc1", "ratio change, negative = inhibition": "inconclusive: 14.1% [at 46 µM]"}
